Measurements as given in PMC10097704.
Results are given in words; binding and its absence hold for the method and conditions named. Binding seen in cells or lysates may run through a third protein. Some binding calls cover weakened binding; strength is not graded here.

Amino acid sequences for entries named in this document (tags omitted).
UniProt Q9UER7: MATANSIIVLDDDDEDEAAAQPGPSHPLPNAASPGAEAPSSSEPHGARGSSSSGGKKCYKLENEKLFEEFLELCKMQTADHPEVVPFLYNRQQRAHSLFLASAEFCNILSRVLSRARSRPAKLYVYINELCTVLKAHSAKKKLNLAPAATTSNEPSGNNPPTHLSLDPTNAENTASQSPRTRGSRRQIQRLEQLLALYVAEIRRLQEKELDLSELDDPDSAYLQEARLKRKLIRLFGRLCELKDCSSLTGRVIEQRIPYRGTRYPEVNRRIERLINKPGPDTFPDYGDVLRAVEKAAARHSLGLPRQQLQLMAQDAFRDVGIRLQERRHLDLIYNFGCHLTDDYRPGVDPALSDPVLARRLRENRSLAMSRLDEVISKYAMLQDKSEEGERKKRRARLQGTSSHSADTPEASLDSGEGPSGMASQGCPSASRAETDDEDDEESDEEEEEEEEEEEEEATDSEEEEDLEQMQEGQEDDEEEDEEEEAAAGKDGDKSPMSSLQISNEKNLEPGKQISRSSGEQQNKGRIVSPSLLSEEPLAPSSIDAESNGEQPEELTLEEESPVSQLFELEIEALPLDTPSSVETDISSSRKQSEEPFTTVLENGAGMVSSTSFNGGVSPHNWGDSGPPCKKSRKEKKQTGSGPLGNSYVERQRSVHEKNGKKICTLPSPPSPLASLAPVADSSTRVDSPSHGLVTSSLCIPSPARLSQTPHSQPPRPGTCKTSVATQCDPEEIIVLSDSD

Columns and labels:
[1] = molecular target: T1, transfected full-length SREBP2 (UniProt Q12772); experiment: co-IP; transiently expressed FLAG-tagged mature SREBP1a, SREBP1c or SREBP2, or transfected full-length SREBP1 and SREBP2; endogenous or exogenous DAXX detected in the precipitate (Supplementary Fig. S6a, b)
T1 sequence: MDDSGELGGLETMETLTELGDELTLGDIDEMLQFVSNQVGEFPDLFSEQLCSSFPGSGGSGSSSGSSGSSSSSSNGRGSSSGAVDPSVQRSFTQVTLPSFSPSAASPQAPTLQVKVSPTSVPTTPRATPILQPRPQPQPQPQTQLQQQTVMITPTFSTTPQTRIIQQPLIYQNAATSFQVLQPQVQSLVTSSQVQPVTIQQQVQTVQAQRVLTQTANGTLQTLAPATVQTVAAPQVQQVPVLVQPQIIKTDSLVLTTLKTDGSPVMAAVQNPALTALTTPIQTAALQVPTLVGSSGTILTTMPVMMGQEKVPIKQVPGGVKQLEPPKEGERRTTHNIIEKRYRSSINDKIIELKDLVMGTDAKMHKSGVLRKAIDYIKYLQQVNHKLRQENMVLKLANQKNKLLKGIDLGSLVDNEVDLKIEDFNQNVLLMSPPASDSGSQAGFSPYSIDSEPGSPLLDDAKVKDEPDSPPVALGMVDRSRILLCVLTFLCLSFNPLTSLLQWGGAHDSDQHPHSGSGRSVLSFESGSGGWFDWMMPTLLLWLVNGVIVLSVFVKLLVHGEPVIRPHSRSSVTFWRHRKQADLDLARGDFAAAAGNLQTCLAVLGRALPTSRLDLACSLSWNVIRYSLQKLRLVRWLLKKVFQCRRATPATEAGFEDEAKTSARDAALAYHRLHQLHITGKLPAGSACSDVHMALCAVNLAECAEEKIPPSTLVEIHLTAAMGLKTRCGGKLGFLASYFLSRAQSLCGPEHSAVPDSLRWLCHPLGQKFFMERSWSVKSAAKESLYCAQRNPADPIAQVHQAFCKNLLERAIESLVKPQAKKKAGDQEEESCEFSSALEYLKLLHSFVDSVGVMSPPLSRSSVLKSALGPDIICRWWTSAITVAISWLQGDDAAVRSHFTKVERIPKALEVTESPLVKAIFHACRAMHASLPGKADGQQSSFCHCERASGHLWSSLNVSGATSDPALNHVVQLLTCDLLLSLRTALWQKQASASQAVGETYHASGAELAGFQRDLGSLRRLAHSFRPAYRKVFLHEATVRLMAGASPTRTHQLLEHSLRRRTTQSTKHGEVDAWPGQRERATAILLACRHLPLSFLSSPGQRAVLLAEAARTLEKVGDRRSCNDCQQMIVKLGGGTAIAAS

[2] = molecular target: T2, transfected full-length SREBP1 (UniProt P36956); experiment: as above
T2 sequence: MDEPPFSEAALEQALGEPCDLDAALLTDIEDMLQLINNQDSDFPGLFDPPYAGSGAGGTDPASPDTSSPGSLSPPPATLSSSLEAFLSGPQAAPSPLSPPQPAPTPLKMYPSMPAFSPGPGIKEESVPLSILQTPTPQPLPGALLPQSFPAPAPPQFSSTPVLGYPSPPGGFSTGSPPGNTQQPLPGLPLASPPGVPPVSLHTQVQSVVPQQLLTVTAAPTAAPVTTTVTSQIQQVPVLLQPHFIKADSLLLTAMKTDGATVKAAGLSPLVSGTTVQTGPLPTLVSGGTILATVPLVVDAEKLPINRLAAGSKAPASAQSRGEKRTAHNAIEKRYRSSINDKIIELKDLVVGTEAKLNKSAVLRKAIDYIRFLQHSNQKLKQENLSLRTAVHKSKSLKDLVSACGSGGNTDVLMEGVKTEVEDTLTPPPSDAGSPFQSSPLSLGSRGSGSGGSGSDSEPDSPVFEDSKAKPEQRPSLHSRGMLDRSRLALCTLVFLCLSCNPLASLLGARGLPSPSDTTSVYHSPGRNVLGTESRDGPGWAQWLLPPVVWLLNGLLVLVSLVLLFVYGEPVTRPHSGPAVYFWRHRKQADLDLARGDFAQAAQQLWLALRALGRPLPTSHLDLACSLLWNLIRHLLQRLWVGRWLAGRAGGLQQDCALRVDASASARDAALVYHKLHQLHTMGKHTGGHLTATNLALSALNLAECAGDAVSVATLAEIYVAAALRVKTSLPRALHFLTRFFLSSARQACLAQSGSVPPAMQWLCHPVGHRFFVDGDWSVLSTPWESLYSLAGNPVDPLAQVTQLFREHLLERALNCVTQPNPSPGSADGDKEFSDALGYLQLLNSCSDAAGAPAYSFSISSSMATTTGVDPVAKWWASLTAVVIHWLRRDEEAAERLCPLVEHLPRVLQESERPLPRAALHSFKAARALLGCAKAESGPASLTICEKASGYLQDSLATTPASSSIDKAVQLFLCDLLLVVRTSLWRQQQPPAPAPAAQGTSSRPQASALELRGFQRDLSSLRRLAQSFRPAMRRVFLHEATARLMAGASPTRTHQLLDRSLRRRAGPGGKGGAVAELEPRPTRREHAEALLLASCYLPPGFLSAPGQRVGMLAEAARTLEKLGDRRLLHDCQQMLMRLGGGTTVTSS

binding [1] | binding [2] | Substance
binds | binds | DAXX (endogenous) (from UniProt Q9UER7 1-740)
binds | binds | exogenous DAXX (Supplementary Fig. S6) (from UniProt Q9UER7 1-740)
